PubChem BioAssay AID1671195 | Yale University – 2021
Purpose: 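Regulators of LDL receptor activity judged by labelled LDL uptake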 (primary screen). Cells: human Huh7 hepatoma cells. Knock-down reagent: siRNA pool against human genes, 18 nM. Timing: about 2 to 2.5 days of knockdown, then 8 h LDL uptake. Treatment: DiI-labelled LDL at 30 µg/ml for 8 h, in lipoprotein-deficient serum medium. Read-out: 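Fluorescent LDL signal imaged in cells, scaled to the plate median, robust z-score for each replicate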. Direction: robust z-score: higher = more LDL uptake after knockdown. Rule for the call: 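Active when two or more replicates show a robust z-score above 2 or below -2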.
Shown is an unselected part of about 22,000 reagents tested. About 1,510 of them (6.9%) count as active. 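Active includes knockdowns raising or lowering LDL uptake; positive z-scores mean more uptake, negative mean less.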 Entries without a mark were called inactive. Reagents against one gene are numbered here.

The first 2 records, to show the layout:
target gene	reagent	robust z-score, replicate 1	robust z-score, replicate 2	robust z-score, replicate 3
KLHL9 (kelch like family member 9)	1	-0.353	-1.34	-1.63
FBXW5 (F-box and WD repeat domain containing 5)	1	-1.57	-0.553	-0.825

Results, from the first entry:
target gene	reagent	robust z-score, replicate 1	robust z-score, replicate 2	robust z-score, replicate 3
KLHL9 (kelch like family member 9)	1	-0.353	-1.34	-1.63
FBXW5 (F-box and WD repeat domain containing 5)	1	-1.57	-0.553	-0.825
H1-10-AS1 (H1-10 antisense RNA 1)	1	1.47	1.15	1.26
TGM2 (transglutaminase 2)	1	-0.876	-0.63	-0.583
CASC22 (cancer susceptibility 22)	1	3.02 (active)	3.22	2.64
RAB11FIP1 (RAB11 family interacting protein 1)	1	1.44	0.942	0.882
RPE65 (retinoid isomerohydrolase RPE65)	1	0.352	0.287	0.062
TMEM167A (transmembrane protein 167A)	1	1.47	0.261	1.57
RIF1 (replication timing regulatory factor 1)	1	-0.102	0.448	1.51
PSMA6 (proteasome 20S subunit alpha 6)	1	-0.12	0.426	0.255
VPS45 (vacuolar protein sorting 45 homolog)	1	1.55	0.123	1.8
ADAT2 (adenosine deaminase tRNA specific 2)	1	-2.81	-1.35	-1.16
ZNF789 (zinc finger protein 789)	1	-0.291	-0.462	-0.386
DNM3 (dynamin 3)	1	0.716	1.23	1.28
NCBP2L (nuclear cap binding protein subunit 2 like)	1	-1.41	-0.00573	-0.21
PTP4A3 (protein tyrosine phosphatase 4A3)	1	-1.17	-1.26	-1.23
COLCA1 (colorectal cancer associated 1)	1	0.902	0.841	0.676
FLJ40194	1	-0.699	-0.333	-0.0253
PSME4 (proteasome activator subunit 4)	1	0.192	1.69	-0.915
ZNF184 (zinc finger protein 184)	1	1.02	-1.18	-0.308
SNX7 (sorting nexin 7)	1	0.336	0.312	0.746
TAGLN (transgelin)	1	0.971	0.747	0.31
MPP1 (MAGUK p55 scaffold protein 1)	1	0.914	0.865	-0.355
EDARADD (EDAR associated via death domain)	1	-1.13	-0.255	0.382
FLJ46347 (retired record)	1	0.378	0.32	0.461
KPNA1 (karyopherin subunit alpha 1)	1	-1.23	-1.27	-1.06
SLC4A1AP	1	0.662	1.1	0.507
MPEG1 (macrophage expressed 1)	1	0.963	0.967	1.43
TMCO4 (transmembrane and coiled-coil domains 4)	1	-0.758	-0.662	-0.846
OR8U3 (olfactory receptor family 8 subfamily U member 3)	1	-0.783	-0.493	-0.438
PCDHB10 (protocadherin beta 10)	1	2.18 (active)	2.4	1.86
SMIM34 (small integral membrane protein 34)	1	-0.32	-0.413	-0.473
GALE (UDP-galactose-4-epimerase)	1	-1.09	-0.795	-0.462
ACMSD (aminocarboxymuconate semialdehyde decarboxylase)	1	0.404	0.532	-0.173
SCIN (scinderin)	1	-1.03	-0.437	-0.782
SHC1 (SHC adaptor protein 1)	1	-2.14 (active)	-2.06	-2.02
MTSS2 (MTSS I-BAR domain containing 2)	1	0.0263	-0.96	-1.13
LOC440890 (retired record)	1	-0.55	-0.854	-1.14
TOR1A (torsin family 1 member A)	1	-0.83	-0.6	-0.645
EXOC3L2 (exocyst complex component 3 like 2)	1	-1.17	-1.5	-1.32
HK2 (hexokinase 2)	1	-0.942	-0.467	-1.13
BRPF1 (bromodomain and PHD finger containing 1)	1	-1.01	-1.03	-1.15
LOC399961 (retired record)	1	1.61 (active)	2.18	2.2
LAMP1 (lysosome associated membrane protein 1)	1	-0.0146	0.0306	-0.3
IFITM5 (interferon induced transmembrane protein 5)	1	0.526	0.559	0.537
LOC440772 (retired record)	1	-0.164	0.442	0.482
MAP4 (microtubule associated protein 4)	1	-0.549	-0.391	-0.97
BPIFA3 (BPI fold containing family A member 3)	1	0.69	0.231	1.07
LOC441546 (retired record)	1	-1.72	-1.86	-1.63
NUDT16L1 (nudix hydrolase 16 like 1)	1	0.151	0.225	0.124
RPL18AP16 (ribosomal protein L18a pseudogene 16)	1	-1.04	-0.978	-1.04
KIAA1549L (KIAA1549 like)	1	1.09	0.152	-0.277
KIAA1549L (KIAA1549 like)	2	-0.313	0.69	-0.035
CNTNAP1 (contactin associated protein 1)	1	0.703	1.03	0.748
STAC2 (SH3 and cysteine rich domain 2)	1	0.0335	0.0643	0.0781
NUDT11 (nudix hydrolase 11)	1	-0.145	0.358	1.34
DEFA5 (defensin alpha 5)	1	-0.137	0.17	-1.63
BRIP1 (BRCA1 interacting DNA helicase 1)	1	2.83 (active)	4.02	3.81
ANKRD42 (ankyrin repeat domain 42)	1	-1.02	-1.04	-1.3
GATA6 (GATA binding protein 6)	1	-1.37	-1.42	-1.46
HSD11B1 (hydroxysteroid 11-beta dehydrogenase 1)	1	-0.69	-0.926	-0.389
SH2B2 (SH2B adaptor protein 2)	1	1.85	1.1	-0.318
ERO1A (endoplasmic reticulum oxidoreductase 1 alpha)	1	0.0511	-0.796	-0.284
TFDP1P2 (TFDP1 pseudogene 2)	1	-1.45	-1.38	-1.36
ZNF140 (zinc finger protein 140)	1	-1.01	-0.717	-0.776
MKS1 (MKS transition zone complex subunit 1)	1	2.6 (active)	3.34	2.8
S100A11 (S100 calcium binding protein A11)	1	0.0499	-0.148	0.664
GNB3 (G protein subunit beta 3)	1	-0.604	-0.865	-0.352
